According to EP0362382A1, “METHOD OF STERILIZING PLANT POLLEN” (VSESOJUZNY NAUCHNO-ISSLEDOVATELSKY INST. SELSKOKHOZYAISTV. …, priority 1988, dated 1989):
Some results were stated once for a whole list of compounds, not compound by compound.

These molecules were tested on diploidem Roggen (assay: Field test of gametocidal activity (sterilisation of anthers), diploid rye). Details: Sorte Woschod 2.
Format: in vivo
Text: (§1) Die gametozide Aktivitat der erfindungsgemäßen Sterilisationsmittel war im Feldversuch in verschiedenen bodenklimatischen Zonen mit Teilstücken von 10 m^2 Größe in drei- bis viermaliger Wiederholung festgestellt. Jedes Sterilisationsmittel wurde mindenstens 5 Jahre lang geprüft.
(§2) Die Entwicklung der Perioden der Organogenese wird zytologisch überwacht. Die Behandlung von Pflanzen mit dem Sterilisationsmittel erfolgt am Anfang der fünften Periode der Organogenese nach Kupermann.
(§3) Mit dem Ährenschieben verwirklicht man die Isolierung von Hauptähren und anderen Stockwerken in Pergamentbeuteln. Bei Weizen und Tritikale werden Einzelisolatoren benutzt. Bei Roggen schließt man je Ähre 5 bis 7 verschiedene nebeneinander befindliche Pflanzen unter einen gemeinsamen Isolator ein. Bei Hierse wird jede Rispe getrennt isoliert. Der Sterilitätsprozentsatz (X) für Weizen, Roggen, Tritikale und Hirse wird nach der Formel [formula] ermittelt.
(§4) Die Kornzahl in nicht isolierten Ähren von Kontrollpflanzen wird bedingt für 100 % Ansetzen bei freier Bestäubung angenommen.
(§5) Um zuverlässige Angaben zu erhalten, verwendet man 20 bis 25 Isolatoren jeder Wiederholung für Weizen und Tritikale, 10 .bis 15 Isolatoren jeder Wiederholung für Roggen und Hirse.
Pflanzen von diploidem Roggen Sorte Wosohod 2 werden in der V. Periode der Organogenese (nach Kupermann) mit 1%iger wäßriger Emulsion von Bis(di-n-butyläther) der δ, δ' -Thiodivaleriansäure, 4-Krboxybutyldezylsulfid, Natriumsalz der δ, δ' -Thiodivaleriansäure, Bis(2-äthylhexyläther) der δ, δ' -Thiodivaleriansäure, δ, δ' -Sulfonyldivaleriansäure, Natriumsalz der δ, δ'-Sulfonyldivaleriansäure, Kaliumsalz der δ, δ' -Sulfonyldivaleriansäure behandelt. Die Emulsion enthält 0,1 Masse% […] mit 12 bis 14 Kohlenstoffatomen und 0,01 Masse% Tetrahydrofuran. Der Verbrauch an Präparat beträgt 6 kg/ha. Als Kontrolle dienen Pflanzen, behandelt mit einem Verdünner ohne Sterilisationsmittel.
Pflanzen von diploidem Roggen Sorte Gibrid 1861/79 werden in der V. und VI. Periode der Organogenese (nach Kupermann) mit 1%iger wäßriger Emulsion von Bis(di-n-butyläther) der δ, δ' -Thiodivaleriansäure, δ, δ' -Thiodivaleriansäure, Natriumsalz der δ δ' -Thiodivaleriansäure, 4-Karboxybutyldezylsulfid, δ , δ' -Sulfonyldivaleriansäure, Kaliumsalz der δ, δ' -Sulfonyldivaleriansäuleriansäure, Kaliumalz der δ' -Sulfonyldivaleriansäure, Bis(2-äthylhexyläther) der δ, δ' -Thiodivaleriansäure behandelt. Die Emulsion enthält 0,1 Masse% Kalziumalkylbenzolsulfonat mit 12 bis 14 Kohlenstoffatomen und 0,01 Masse% Dimethylformamid. Der Verbrauch an Präparat beträgt 8 kg/ha. Als Kontrolle dienen Pflanzen, behandelt mit einem Verdünner ohne Sterilisationsmittel. Die Prüfergebnisse sind in der Tabelle 10 angegeben.
With O=C(O)CCCCS(=O)(=O)CCCCC(=O)O [Beispiel 43, Kaliumsalz der δ, δ' -Sulfonyldivaleriansäure] the “Ergebnisse bei der Behandlung in der VI. Periode der Organogenese” value (“Ergebnisse bei der Behandlung” below) was “ähnlichen Ergebnisse”. For O=C(O)CCCCS(=O)(=O)CCCCC(=O)O [Beispiel 41, δ, δ' -Sulfonyldivaleriansäure], the “Ergebnisse bei der Behandlung” value was “ähnlichen Ergebnisse”. For CCCCC(CC)COC(=O)CCCCSCCCCC(=O)OCC(CC)CCCC (centres unmarked) [Beispiel 40, Bis(2-äthylhexyläther) der δ, δ' -Thiodivaleriansäure], the “Ergebnisse bei der Behandlung” value was “ähnlichen Ergebnisse”. With CCCCCCCCCCSCCCCC(=O)O [Beispiel 38, 4-Krboxybutyldezylsulfid] the “Ergebnisse bei der Behandlung” value was “ähnlichen Ergebnisse”. With CCCCOC(=O)CCCCSCCCCC(=O)OCCCC [Beispiel 37, Bis(di-n-butyläther) der δ, δ' -Thiodivaleriansäure] the “Ergebnisse bei der Behandlung” value was “ähnlichen Ergebnisse”. O=C(O)CCCCS(=O)(=O)CCCCC(=O)O [Beispiel 42, Natriumsalz der δ, δ'-Sulfonyldivaleriansäure] was tested, and the “Ergebnisse bei der Behandlung” value was “ähnlichen Ergebnisse”. O=C(O)CCCCSCCCCC(=O)O [Beispiel 39, Natriumsalz der δ, δ' -Thiodivaleriansäure] was tested, and the “Ergebnisse bei der Behandlung” value was “ähnlichen Ergebnisse”.

The molecules below were run on tetraploidem Roggen (assay: Field test of gametocidal activity (sterilisation of anthers), tetraploid rye). Details: Sorte Belta.
Format: in vivo
Text: as §1, §2, §3, §4, §5
Pflanzen von tetraploidem Roggen Sorte Belta werden in der V. Periode der Organogenese (nach Kupermann) mit 1%iger wäßriger Emulsion von d, δ' -Thiodivaleriansäure, Natriumsalz der δ, δ' -Thiodivaleriansäure, δ, δ' -Sulfonylvaleriansäure, Natriumsalz der δ, δ' -Sulfonyldivaleriansäure, Kaliumsalz der d, δ' -Sulfonyldivaleriansäure, Bis(di-n-butyläther) der δ, δ' -Thiodivaleriansäure, Bis(2-Äthylhexyläther) der δ, δ'-Thiodivaleriansäure, 4-Karboxybutyldezylsulfid behandelt. Die Emulsion enthält 0,1 Masse% Kalziumalkylbenzolaulfonat und 0,01 Masse% Dimethylsulfoxid. Der Verbrauch an Präparat beträgt 6 kg/ha. Als Kontrolle dienen Pflanzen, behandelt mit einem Verdünner ohne Sterilisationsmittel. Die Prüfergebnisse sind in der Tabelle 11 angegeben. […] Periode der Organogese erhalten.
For O=C(O)CCCCS(=O)(=O)CCCCC(=O)O [Beispiel 54, Natriumsalz der δ, δ' -Sulfonyldivaleriansäure], the “Ergebnisse bei der Behandlung” value was “ähnlichen Ergebnisse”. In the case of O=C(O)CCCCS(=O)(=O)CCCCC(=O)O [Beispiel 55, Kaliumsalz der d, δ' -Sulfonyldivaleriansäure], the “Ergebnisse bei der Behandlung” value was “ähnlichen Ergebnisse”. For O=C(O)CCCCS(=O)(=O)CCCCC(=O)O [Beispiel 53, δ, δ' -Sulfonylvaleriansäure], the “Ergebnisse bei der Behandlung” value was “ähnlichen Ergebnisse”. CCCCC(CC)COC(=O)CCCCSCCCCC(=O)OCC(CC)CCCC (centres unmarked) [Beispiel 57, Bis(2-Äthylhexyläther) der δ, δ'-Thiodivaleriansäure] was tested, and the “Ergebnisse bei der Behandlung” value was “ähnlichen Ergebnisse”. For CCCCOC(=O)CCCCSCCCCC(=O)OCCCC [Beispiel 56, Bis(di-n-butyläther) der δ, δ' -Thiodivaleriansäure], the “Ergebnisse bei der Behandlung” value was “ähnlichen Ergebnisse”. O=C(O)CCCCSCCCCC(=O)O [Beispiel 51, d, δ' -Thiodivaleriansäure] was tested, and the “Ergebnisse bei der Behandlung” value was “ähnlichen Ergebnisse”. CCCCCCCCCCSCCCCC(=O)O [Beispiel 58, 4-Karboxybutyldezylsulfid] was tested, and the “Ergebnisse bei der Behandlung” value was “ähnlichen Ergebnisse”.

What follows are molecules tested on Tritikale (assay: Field test of gametocidal activity (sterilisation of anthers), triticale). Details: PRAG 109.
Format: in vivo
Text: as §1, §2, §3, §4, §5
Pflanzen von Tritikale PRAG 109 werden in der V. Periode der Organogenese (nach Kupermann) mit 1,5%iger wäßriger Emulsion von Bis(di-n-butyläther) der δ, δ' -Thiodivaleriansäure, 4-Kaxboxybutyldezylsulfid, Bis(2-Äthylhexyläther) der δ, δ' -Thiodivaleriansäure behandelt. Die Emulsion enthält 0,1 Masse% Kalziumalkylbenzolsulfonat mit 12 bis 14 Kohlenstoffatomen und 0,01 Masse% Tetrahydrofuran. Der Verbrauch an Präparat beträgt 15 kg/ha. Als Kontrolle dienen Pflanzen, behandelt mit einem Verdünner ohne Sterilisationsmittel. Die Prüfergebnisse sind in der Tabelle 12 angegeben. […] Periode der Organogenese erhalten.
Pflanzen von Tritikale der Sorte Amphidiploid 206 werden in der V. Periode der Organogenese (nach Kupermann) mit 1,5%iger wäßriger Emulsion von Natriumsalz der δ, δ'-Thiodivaleriansäure, δ, δ' -Sulfonyldivaleriansäure Kaliumsalz der d , δ' -Sulfonyldivaleriansäure behandelt. Die Emulsion enthalt 0,1 Masse% Kalziumalkylbenzolsulfonat mit 12 bis 14 Kohlenstoffatomen und 0,01 Masse% Dodezylsulfat. Der Verbrauch an Präparat beträgt 9 kg/ha. Als Kontrolle dienen Pflanzen, behandelt mit einem Verdünner ohne Sterilisationsmittel. Die Prüfergebnisse sind in der Tabelle 13 angegeben. […] Periode der Organogenese erhalten.
CCCCC(CC)COC(=O)CCCCSCCCCC(=O)OCC(CC)CCCC (centres unmarked) [Beispiel 61, Bis(2-Äthylhexyläther) der δ, δ' -Thiodivaleriansäure] was tested, and the “Ergebnisse bei der Behandlung” value was “ähnlichen Ergebnisse”. CCCCOC(=O)CCCCSCCCCC(=O)OCCCC [Beispiel 59, Bis(di-n-butyläther) der δ, δ' -Thiodivaleriansäure] was tested, and the “Ergebnisse bei der Behandlung” value was “ähnlichen Ergebnisse”. In the case of CCCCCCCCCCSCCCCC(=O)O [Beispiel 60, 4-Kaxboxybutyldezylsulfid], the “Ergebnisse bei der Behandlung” value was “ähnlichen Ergebnisse”.

Same assay, conditions: Sorte Amphidiploid 206
For O=C(O)CCCCS(=O)(=O)CCCCC(=O)O [Beispiel 64, Kaliumsalz der d , δ' -Sulfonyldivaleriansäure], the “Ergebnisse bei der Behandlung” value was “ähnlichen Ergebnisse”. In the case of O=C(O)CCCCS(=O)(=O)CCCCC(=O)O [Beispiel 63, δ, δ' -Sulfonyldivaleriansäure], the “Ergebnisse bei der Behandlung” value was “ähnlichen Ergebnisse”. With O=C(O)CCCCSCCCCC(=O)O [Beispiel 62, Natriumsalz der δ, δ'-Thiodivaleriansäure] the “Ergebnisse bei der Behandlung” value was “ähnlichen Ergebnisse”.
